Measured values published in article PMC9034549.
No constants are given. Whether binding was seen depends on the method and setting. In cells and extracts the contact can be indirect. Some entries that bind do so weakly or less than the wild type.

Amino acid sequences for entries named in this document (tags omitted).
UniProt Q9NS91: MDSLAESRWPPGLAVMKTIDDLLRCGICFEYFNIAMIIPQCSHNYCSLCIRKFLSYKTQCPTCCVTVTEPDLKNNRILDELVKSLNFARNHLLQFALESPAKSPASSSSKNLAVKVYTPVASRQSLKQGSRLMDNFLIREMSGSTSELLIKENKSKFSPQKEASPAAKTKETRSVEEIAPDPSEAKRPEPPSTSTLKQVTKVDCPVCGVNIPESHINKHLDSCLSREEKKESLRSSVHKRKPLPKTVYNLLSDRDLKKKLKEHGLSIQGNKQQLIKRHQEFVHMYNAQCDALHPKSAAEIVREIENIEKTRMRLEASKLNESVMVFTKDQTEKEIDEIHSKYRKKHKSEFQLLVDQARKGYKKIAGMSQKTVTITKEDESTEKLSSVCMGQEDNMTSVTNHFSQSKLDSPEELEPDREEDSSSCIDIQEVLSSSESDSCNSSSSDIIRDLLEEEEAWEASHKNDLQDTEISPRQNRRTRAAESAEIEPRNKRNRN
UniProt O60934: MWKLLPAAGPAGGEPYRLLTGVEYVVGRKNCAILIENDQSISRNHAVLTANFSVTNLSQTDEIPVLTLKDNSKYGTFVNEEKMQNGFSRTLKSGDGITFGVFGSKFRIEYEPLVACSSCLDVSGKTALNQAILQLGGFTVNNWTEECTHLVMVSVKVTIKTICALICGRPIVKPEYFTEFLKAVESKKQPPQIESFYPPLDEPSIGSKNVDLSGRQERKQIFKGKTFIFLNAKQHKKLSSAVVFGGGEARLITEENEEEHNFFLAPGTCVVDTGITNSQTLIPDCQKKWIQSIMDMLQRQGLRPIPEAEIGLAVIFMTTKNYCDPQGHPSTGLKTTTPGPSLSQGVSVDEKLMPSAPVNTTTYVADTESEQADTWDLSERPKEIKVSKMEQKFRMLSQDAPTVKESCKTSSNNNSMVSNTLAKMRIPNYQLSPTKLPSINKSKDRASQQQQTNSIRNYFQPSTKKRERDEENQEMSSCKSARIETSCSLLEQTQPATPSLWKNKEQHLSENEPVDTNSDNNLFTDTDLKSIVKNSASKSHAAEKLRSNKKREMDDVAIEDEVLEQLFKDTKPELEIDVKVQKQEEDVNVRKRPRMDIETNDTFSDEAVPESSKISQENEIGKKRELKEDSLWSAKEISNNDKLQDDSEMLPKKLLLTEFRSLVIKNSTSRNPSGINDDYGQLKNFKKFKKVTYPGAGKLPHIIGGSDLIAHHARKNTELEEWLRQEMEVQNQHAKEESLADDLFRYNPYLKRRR
UniProt Q92878: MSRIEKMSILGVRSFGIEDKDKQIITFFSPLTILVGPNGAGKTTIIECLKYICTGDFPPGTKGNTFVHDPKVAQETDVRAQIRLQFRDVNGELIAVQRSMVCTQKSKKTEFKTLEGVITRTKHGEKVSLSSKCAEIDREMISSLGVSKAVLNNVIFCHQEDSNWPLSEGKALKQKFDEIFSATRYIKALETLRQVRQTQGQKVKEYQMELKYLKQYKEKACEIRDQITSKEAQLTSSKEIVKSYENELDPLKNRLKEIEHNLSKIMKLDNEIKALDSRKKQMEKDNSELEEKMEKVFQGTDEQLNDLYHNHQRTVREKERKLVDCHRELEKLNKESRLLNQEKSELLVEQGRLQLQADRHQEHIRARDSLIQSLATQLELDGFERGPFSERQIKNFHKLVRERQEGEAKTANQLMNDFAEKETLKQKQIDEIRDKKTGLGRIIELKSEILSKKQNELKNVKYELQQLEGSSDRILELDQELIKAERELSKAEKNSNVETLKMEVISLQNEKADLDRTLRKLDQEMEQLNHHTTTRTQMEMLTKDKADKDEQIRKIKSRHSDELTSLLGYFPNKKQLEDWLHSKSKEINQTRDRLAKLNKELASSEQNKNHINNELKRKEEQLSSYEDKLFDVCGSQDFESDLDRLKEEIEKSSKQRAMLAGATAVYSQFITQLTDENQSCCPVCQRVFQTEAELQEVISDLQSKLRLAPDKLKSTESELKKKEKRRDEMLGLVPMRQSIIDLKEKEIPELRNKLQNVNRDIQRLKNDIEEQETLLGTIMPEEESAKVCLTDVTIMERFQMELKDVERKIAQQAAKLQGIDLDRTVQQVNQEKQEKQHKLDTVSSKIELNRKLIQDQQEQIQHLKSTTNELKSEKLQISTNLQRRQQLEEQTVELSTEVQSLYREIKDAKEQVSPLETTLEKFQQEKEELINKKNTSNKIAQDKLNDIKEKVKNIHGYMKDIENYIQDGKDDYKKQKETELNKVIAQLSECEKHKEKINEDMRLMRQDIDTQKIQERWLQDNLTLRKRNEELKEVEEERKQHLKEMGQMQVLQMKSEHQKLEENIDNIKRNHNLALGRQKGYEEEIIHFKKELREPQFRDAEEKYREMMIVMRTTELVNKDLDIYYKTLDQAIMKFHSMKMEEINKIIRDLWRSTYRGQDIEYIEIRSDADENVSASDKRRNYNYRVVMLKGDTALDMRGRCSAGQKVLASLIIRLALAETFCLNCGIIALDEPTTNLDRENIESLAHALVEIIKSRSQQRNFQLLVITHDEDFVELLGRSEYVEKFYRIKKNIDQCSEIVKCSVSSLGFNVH

Target: E3 ubiquitin-protein ligase Rad18 (human (endogenous in 143B)) (UniProt Q9NS91)
Experiment: co-IP; lysates of 143B and 143B-Res cells, immunoprecipitated with Rad18 antibody, western blot; also 143B cells with 0 or 5 μM doxorubicin (6 h); wash 50 mM Tris-HCl pH 7.4, 150 mM NaCl, 0.5% NP-40

Substance	binding
NBS1 (from UniProt O60934 1-754)	binds
RAD50 (from UniProt Q92878 1-1312)	binds
